The targets with a hit were mostly taken out for another list; the other results follow. The data scatter; read single values as rough. Only a part is listed here, and it is no random draw.
compound: COC(=O)/C=C/c1ccccc1 [methyl cinnamate]; experiment: log2 ratio of iodoacetamide-alkyne labeling of the cysteine site, DMSO over compound (competition); higher = stronger covalent engagement of the cysteine by the compound, active = 1 or more; settings: 500 µM; treatment time 1 h; system: HEK293T cell lysate
How it was run: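 After 1 h at ambient temperature with vehicle or electrophile (500 µM), HEK293T lysate (2 mg/mL) was labelled for 1 h with iodoacetamide alkyne and clicked to sCIP-TMT reagents. Pooled samples were trypsin-digested overnight at 37 °C, streptavidin-enriched, acid-eluted and analysed by Orbitrap Eclipse LC-MS/MS with FAIMS, then quantified in FragPipe over three replicates with duplicate channels. A cysteine's log2 competition ratio is its mean control-channel over mean compound-channel reporter intensity. Cysteines quantified in only one replicate were not included.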

Amino acid sequences for entries named in this document (tags omitted). A change or cut given only in a name is not applied to a line headed by its entry.
UniProt O43159: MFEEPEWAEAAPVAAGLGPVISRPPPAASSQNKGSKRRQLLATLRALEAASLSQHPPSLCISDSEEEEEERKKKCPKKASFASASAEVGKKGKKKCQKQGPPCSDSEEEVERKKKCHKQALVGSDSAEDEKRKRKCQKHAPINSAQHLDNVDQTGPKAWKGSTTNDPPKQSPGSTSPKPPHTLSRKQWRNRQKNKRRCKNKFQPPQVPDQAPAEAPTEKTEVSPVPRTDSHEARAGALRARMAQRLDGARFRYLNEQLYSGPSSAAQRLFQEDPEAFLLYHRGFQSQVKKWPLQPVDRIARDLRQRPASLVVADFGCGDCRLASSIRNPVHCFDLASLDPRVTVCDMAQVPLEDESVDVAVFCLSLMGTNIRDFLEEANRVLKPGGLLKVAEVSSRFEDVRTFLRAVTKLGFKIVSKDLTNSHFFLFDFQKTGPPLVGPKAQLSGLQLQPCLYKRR
UniProt O14641: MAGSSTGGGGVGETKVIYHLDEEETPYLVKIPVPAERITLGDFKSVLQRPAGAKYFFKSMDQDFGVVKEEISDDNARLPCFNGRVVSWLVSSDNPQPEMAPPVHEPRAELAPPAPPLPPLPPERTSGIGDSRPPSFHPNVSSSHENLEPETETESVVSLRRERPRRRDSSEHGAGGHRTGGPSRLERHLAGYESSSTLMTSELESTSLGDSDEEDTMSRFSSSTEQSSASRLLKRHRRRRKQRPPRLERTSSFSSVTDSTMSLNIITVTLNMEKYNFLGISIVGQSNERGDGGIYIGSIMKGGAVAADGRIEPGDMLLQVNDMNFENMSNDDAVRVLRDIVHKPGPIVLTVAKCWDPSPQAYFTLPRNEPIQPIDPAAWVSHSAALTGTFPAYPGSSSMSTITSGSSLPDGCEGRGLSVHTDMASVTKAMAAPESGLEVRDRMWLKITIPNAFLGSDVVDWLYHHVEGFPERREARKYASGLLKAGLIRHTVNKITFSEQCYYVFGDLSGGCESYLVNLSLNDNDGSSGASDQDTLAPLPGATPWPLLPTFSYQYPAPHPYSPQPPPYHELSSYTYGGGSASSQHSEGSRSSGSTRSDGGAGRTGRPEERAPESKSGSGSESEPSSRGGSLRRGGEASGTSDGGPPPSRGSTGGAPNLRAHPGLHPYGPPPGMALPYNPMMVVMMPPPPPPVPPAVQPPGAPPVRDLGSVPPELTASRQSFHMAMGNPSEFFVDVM
UniProt O14929: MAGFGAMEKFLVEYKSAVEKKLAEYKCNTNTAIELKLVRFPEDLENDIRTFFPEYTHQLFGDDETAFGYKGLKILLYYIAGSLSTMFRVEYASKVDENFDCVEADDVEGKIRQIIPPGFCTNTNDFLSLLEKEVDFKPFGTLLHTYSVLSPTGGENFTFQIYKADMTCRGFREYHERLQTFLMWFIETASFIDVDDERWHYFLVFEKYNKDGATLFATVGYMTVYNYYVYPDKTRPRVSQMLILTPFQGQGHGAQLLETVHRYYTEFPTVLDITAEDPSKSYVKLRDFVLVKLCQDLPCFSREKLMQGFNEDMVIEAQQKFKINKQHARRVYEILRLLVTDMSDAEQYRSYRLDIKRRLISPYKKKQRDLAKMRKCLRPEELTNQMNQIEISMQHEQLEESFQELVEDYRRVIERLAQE
UniProt O15085: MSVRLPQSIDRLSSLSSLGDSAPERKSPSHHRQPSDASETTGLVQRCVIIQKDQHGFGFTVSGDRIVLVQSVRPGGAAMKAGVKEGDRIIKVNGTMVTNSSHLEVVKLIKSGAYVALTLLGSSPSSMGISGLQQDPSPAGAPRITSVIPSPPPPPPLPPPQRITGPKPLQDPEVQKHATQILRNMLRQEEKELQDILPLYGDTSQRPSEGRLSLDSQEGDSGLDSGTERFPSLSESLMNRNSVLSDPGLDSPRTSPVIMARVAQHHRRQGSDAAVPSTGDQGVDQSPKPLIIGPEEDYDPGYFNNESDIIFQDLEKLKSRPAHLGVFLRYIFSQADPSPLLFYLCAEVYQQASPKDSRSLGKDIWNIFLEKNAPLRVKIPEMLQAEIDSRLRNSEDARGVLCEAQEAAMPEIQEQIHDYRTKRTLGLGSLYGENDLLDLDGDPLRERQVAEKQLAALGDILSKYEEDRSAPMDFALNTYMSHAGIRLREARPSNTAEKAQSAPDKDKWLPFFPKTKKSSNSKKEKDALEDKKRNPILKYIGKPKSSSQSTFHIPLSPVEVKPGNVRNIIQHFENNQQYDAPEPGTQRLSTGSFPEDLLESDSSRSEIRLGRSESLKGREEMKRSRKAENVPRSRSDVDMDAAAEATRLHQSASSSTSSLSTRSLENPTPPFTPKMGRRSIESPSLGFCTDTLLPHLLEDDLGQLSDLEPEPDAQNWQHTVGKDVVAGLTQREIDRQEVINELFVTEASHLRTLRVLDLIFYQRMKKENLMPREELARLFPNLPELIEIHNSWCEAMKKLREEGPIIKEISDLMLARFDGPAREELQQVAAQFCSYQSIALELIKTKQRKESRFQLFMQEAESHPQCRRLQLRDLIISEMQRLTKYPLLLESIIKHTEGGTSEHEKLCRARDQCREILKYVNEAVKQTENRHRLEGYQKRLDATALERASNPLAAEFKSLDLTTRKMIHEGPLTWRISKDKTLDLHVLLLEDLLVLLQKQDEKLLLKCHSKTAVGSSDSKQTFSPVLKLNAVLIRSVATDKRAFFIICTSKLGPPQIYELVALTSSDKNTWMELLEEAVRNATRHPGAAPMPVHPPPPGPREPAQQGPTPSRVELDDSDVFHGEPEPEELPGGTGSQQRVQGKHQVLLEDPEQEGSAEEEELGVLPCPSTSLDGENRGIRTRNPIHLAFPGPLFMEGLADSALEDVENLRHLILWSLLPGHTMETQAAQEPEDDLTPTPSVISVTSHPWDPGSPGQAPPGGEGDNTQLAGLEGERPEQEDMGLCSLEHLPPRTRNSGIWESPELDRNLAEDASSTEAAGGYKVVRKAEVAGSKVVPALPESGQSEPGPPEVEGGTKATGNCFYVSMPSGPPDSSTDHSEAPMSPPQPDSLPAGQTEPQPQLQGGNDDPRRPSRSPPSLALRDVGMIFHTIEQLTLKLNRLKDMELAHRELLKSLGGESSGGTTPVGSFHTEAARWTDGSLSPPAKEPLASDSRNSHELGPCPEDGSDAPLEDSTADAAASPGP
UniProt O15269: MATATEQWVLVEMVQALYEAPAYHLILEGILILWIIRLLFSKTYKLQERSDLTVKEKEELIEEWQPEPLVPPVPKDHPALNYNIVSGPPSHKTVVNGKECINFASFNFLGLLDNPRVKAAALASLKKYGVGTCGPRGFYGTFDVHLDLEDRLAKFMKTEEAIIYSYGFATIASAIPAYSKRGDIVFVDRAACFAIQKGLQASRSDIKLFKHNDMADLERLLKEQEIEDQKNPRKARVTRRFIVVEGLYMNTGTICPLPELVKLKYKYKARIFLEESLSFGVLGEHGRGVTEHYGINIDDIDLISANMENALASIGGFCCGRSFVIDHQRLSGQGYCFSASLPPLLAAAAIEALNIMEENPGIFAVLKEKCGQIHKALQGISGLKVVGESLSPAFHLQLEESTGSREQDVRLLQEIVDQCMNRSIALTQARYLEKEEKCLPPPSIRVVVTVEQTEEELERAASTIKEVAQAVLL
UniProt O43149: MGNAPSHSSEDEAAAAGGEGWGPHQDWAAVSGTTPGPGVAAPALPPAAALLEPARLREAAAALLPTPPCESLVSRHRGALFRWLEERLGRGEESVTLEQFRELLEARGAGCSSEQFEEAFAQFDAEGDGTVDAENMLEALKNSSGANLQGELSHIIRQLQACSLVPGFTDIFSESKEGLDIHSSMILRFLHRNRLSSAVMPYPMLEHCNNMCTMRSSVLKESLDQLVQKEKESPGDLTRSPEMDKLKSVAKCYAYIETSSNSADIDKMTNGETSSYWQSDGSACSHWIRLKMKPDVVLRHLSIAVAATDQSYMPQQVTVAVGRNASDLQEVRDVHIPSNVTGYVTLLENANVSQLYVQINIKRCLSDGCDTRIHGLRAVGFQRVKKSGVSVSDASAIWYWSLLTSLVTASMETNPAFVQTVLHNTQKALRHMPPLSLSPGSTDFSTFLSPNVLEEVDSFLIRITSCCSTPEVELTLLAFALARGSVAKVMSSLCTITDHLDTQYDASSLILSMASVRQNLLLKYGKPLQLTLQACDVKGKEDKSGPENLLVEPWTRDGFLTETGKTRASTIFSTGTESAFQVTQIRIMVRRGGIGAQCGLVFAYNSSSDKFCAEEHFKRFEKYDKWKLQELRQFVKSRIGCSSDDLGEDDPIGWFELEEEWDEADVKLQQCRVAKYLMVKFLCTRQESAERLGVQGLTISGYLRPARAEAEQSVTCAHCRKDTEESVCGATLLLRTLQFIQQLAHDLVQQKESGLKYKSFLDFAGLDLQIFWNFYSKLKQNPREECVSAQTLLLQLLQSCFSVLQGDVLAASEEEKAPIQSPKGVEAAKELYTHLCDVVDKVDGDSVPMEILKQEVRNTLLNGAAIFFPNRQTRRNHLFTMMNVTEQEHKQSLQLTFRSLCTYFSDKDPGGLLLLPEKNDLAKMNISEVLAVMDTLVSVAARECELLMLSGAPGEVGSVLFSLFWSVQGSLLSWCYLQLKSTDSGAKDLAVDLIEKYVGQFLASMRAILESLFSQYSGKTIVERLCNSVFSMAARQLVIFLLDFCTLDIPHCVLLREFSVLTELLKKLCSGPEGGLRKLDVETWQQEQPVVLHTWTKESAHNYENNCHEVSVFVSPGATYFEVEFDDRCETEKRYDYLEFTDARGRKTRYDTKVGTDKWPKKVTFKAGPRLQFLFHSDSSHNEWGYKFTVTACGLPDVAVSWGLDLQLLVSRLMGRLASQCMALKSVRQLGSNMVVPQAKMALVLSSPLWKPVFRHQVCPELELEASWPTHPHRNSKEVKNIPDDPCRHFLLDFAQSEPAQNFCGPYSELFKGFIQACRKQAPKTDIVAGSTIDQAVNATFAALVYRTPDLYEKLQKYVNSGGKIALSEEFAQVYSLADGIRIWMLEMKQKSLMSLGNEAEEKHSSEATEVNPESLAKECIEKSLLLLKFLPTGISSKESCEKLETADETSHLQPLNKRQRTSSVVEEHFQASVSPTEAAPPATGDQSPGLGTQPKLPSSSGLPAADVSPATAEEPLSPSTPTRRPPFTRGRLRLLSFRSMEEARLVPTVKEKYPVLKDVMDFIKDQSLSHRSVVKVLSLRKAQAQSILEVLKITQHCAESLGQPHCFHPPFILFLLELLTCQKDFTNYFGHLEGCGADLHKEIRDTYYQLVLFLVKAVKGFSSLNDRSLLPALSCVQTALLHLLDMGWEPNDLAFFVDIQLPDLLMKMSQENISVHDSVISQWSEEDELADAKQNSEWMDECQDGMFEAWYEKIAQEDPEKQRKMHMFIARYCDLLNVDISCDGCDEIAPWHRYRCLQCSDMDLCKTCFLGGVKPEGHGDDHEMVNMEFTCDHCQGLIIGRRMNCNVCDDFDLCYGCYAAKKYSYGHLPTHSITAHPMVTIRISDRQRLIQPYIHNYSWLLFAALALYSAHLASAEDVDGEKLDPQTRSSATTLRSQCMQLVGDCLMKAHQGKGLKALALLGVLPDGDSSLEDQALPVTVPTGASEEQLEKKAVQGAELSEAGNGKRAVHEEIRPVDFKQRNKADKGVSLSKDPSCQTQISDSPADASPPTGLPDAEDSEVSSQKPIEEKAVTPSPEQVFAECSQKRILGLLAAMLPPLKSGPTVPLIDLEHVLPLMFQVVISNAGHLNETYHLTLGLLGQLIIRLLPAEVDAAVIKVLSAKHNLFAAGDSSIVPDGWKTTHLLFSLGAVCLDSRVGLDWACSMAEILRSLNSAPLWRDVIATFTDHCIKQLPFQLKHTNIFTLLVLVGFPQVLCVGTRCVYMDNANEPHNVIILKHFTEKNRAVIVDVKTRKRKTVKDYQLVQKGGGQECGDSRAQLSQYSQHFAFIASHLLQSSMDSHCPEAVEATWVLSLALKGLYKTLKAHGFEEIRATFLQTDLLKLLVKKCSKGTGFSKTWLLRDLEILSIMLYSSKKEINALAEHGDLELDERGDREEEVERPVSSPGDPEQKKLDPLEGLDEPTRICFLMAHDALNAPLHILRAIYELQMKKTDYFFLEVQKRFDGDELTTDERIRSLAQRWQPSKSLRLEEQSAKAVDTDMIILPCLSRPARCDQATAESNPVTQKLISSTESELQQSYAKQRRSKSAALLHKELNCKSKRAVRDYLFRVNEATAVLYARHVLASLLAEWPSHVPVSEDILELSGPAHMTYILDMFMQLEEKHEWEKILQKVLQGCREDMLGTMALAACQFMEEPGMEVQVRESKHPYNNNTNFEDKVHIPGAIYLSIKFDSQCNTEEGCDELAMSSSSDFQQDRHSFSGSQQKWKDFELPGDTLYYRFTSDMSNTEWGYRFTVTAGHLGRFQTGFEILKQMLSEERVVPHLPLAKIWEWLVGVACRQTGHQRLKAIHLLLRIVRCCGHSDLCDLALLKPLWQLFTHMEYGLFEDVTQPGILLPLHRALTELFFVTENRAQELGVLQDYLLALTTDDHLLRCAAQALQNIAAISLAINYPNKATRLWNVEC

log2 ratio of iodoacetamide-alkyne labeling, inactive:
PRMT5 C22 (UniProt O14744) 0.307, UniProt O14972_C243 0.146, DYNC1LI2 C104 (UniProt O43237) 0.249, GAK C190 (UniProt O14976) 0.0641, UniProt O43159_C320 0.0311, PFAS C697 (UniProt O15067) 0.648, UniProt O14965_C290 0.257, DVL2 C354 (UniProt O14641) 0.541, UniProt O00567_C142 0.174, DNM1L C431 (UniProt O00429) 0.33, HAT1 C376 (UniProt O14929) 0.0113, UniProt O00148_C197 -0.001, PRMT5 C42 (UniProt O14744) 0.0154, RNMT C73 (UniProt O43148) 0.446, POLRMT C650 (UniProt O00411) -0.0644, ARHGEF11 C402 (UniProt O15085) 0.196, PFAS C66 (UniProt O15067) -0.0482, ATOX1 C12 (UniProt O00244) 0.458, DVL2 C412 (UniProt O14641) 0.153, DDX3X C317 (UniProt O00571) -0.0622, SPTLC1 C100 (UniProt O15269) -0.0803, ZZEF1 C69 (UniProt O43149) -0.0756

Source: the supplement of paper PMC11006884
